The values below come from patent US20060088598A1, “Intravenous composition, process for producing the same and preparation thereof” (LTT Bio-Pharama Co., Ltd., priority 2002, published 2006).

Data set [1] concerns arthritis model rat. The experiment in a line: Inflammation inhibitory effect in arthritis model rat (foot swelling, volume meter). In kind it is in vivo. As to conditions: FIG. 9. The method, then: 100 μl of an adjuvant suspension containing 6 mg/ml dry M. Butyricum was intravenously injected through the tail head portion of a rat. 6 days later, 100 μl of a physiological salt solution containing 1% carrageenin was injected into the sole of the left foot thereof, so as to produce a continued 1 arthritis model rat (Y. Mizushima et al., J. Pharm. Pharmac., 1972, 24, 781-785). At 24 hours after administration of carrageenin, the BDP-containing PLGA preparation produced in Example 2 (50 μg/rat betamethazone) was injected into the caudal vein thereof, and the swelling of the foot of the rat was measured with a volume meter over time. As a control, there was used a rat into which betamethazone phosphate was subcutaneously injected, having the same titer as that of a rat into the caudal vein of which PBS alone was injected.

A short description of data set [2]: Encapsulation ratio of agents in PLGA microparticles (HPLC of supernatant and deposit). In kind it is physicochemical. The settings on record: FIG. 1; microparticles of Example 1. The procedure: 100 mg of PLGA (Wako) or PLA (Wako), 10 mg of egg yolk lecithin, and 0.5 mg of an agent were dissolved in 1 ml of dichloromethane. While cooling in an ice bath, the obtained solution was slowly added dropwise, through a 27G needle, to 25 ml of distilled water, which was being stirred with Polytron PT-2100 (Kinematica) or an ultrasonic generator (TOMY). After the stirring was continued for 10 minutes, the mixture was further stirred with a stirrer at room temperature for 2 hours. Thereafter, dichloromethane was removed. The obtained microparticles were concentrated by ultra filtration (Amicon, Centriprep YM-10) and were then purified by gel filtration (Pharmacia, PD-10). The thus obtained particles were centrifuged at 13,000 g for 10 minutes, and the agent contained in the supernatant and deposit was assayed by HPLC. HPLC analysis was carried out in a water/acetonitrile system for measuring the absorption at 210 nm or 240 nm using a C4 reverse phase column (Waters, Symmetry 300). With regard to agents, PGE1, and ASO06 produced by esterifying carboxylic acid and a hydroxyl group thereof, were used as prostanoids. Hydrocortisone, hydrocortisone acetate, hydrocortisone butyrate propionate (HBP), betamethazone, and betamethazone dipropionate (BDP) were used as steroids.

In the case of `C[C@H]1C[C@H]2[C@@H]3CCC4=CC(=O)C=C[C@]4(C)[C@@]3(F)[C@@H](O)C[C@]2(C)[C@@]1(O)C(=O)COP(=O)(O)O` [betamethazone phosphate], the “inhibition of foot swelling” value is “swelling was strongly inhibited” in data set [1] (1st day, 50 μg/rat betamethazone, PLGA preparation into caudal vein, betamethazone phosphate subcutaneously) and “inhibitory effects rapidly decreased” in data set [1] (after the 1st day, same dosing). Take `C[C@H]1C[C@H]2[C@@H]3CCC4=CC(=O)C=C[C@]4(C)[C@@]3(F)[C@@H](O)C[C@]2(C)[C@@]1(O)C(=O)CO` [betamethazone]: in data set [2], the “encapsulation ratio in PLGA microparticle” value is reported as “almost neither hydrocortisone nor betamethazone could be encapsulated”.
